At least one structure is not confirmed: it was looked up by name or label, or the drawing left a doubt.
Columns and labels:
C. acnes (ATCC 6919) = test: Growth inhibition of the acne-causing strain C. acnes (ATCC 6919), absorbance at 600 nm; format: cell-based, Cutibacterium acnes; conditions: culture products; doxycycline 0.025 μg/ml; anaerobic, 37° C., 48 hours; vs nothing treated (NC)
S. epidermidis bacteria = test: Biofilm formation inhibition, crystal violet staining; format: cell-based, Staphylococcus epidermidis; conditions: culture products 5% (v/v); doxycycline 4 μg/ml; 24 hours, 37° C.; vs nothing treated (NC)
[1] = tested on: mice in which rosacea is induced; test: Rosacea animal model induced by LL37 peptide; format: in vivo, BALB/c mice
Method: For the present animal effectiveness test, 32 5-week-old female BALB/c mice were purchased from Orient Bio company, and brought into a breeding room with a 12-hour artificial photoperiod, and acclimatized for one week, and then used in the experiment.
To make a rosacea animal model, hair on the mice's back area was removed using a depilator and hair removal cream. In 24 hours after depilation, to induce rosacea lesions, LL37 peptide (Peptron, Co., Ltd) of 320 μM was under intradermal injection using an insulin syringe by 50 μl. […] Doxycycline, which is one of conventional rosacea therapies, was peritoneally administered by 1 mg/kg once a day, for 3 days (total 3 times).
After 24 hours of the last strain culture product administration, the size (area) of erythema was measured using a caliper, and the animals were euthanized using CO2 gas, and then the lesion area was taken as a photograph and the degree of the erythema was observed by naked eyes and the tissue photographs and the area of the inflammation area were shown in FIG. 14a and FIG. 14b as graphs.

Raw264.7 macrophages = test: Immunity index analysis: Raw264.7 macrophages stimulated with C. acnes (ATCC 6919) culture product, cytokine ELISA and cell counting kit 8; format: cell-based; conditions: culture products filtered to 3 kDa or less 20 μl/well (dexamethasone 100 nM), 24 hours, after stimulus with C. acnes (ATCC 6919) culture product; vs Cell only w/stimuli
[2] = tested on: mouse-derived marrow derived macrophages (mouse BMDM); test: Primary immunocyte immunity index analysis in mouse BMDM; format: cell-based; conditions: culture products 20 μl/well (dexamethasone 100 nM), 24 hours, after C. acnes (ATCC 6919) stimulus, vs Cell w/stimuli
[3] = tested on: human monocyte derived macrophage (HMDM); test: Primary immunocyte immunity index analysis in HMDM; format: cell-based; conditions: culture products 20 μl/well (dexamethasone 100 nM), 24 hours, after C. acnes (ATCC 6919) stimulus, vs Cell w/stimuli
[4] = H&E staining of LL37-administered skin, culture products 150 μl i.p. x3, doxycycline 1 mg/kg x3, LL37 = rosacea induction only

SMILES	growth of the C. acnes ATCC 6919 strain (antimicrobial activity) (C. acnes (ATCC 6919))	biofilm formation inhibitory effect (S. epidermidis bacteria)	Dermal inflammation (histopathological evaluation score) [1, 4]	Epithelial hyperplasia (histopathological evaluation score) [1, 4]	area of the inflammation area ([1]; H&E tissue photographs, culture products 150 μl intraperitoneally once a day for 3 days, doxycycline 1 mg/kg, vs LL37 group)	erythema on the skin ([1]; culture products 150 μl intraperitoneally once a day for 3 days, doxycycline 1 mg/kg, vs LL37 group)	secreted amount of inflammatory cytokine CCL2 (Raw264.7 macrophages)	secreted amount of inflammatory cytokine IL-6 (Raw264.7 macrophages)	secreted amount of inflammatory cytokine TNF (Raw264.7 macrophages)	proliferation of the mouse BMDM cells [2]	amount of IL-6 ([2]; mouse BMDM)	secreted amount of IL-6 [3]	secreted amount of IL-8 [3]
C[C@H]1c2cccc(O)c2C(=O)C2=C(O)[C@]3(O)C(=O)C(C(N)=O)=C(O)[C@@H](N(C)C)[C@@H]3[C@@H](O)[C@@H]21 [doxycycline]	reduced	shown	not reduced	reduced	slightly reduced	slightly reduced							
C[C@@H]1C[C@H]2[C@@H]3CCC4=CC(=O)C=C[C@]4(C)[C@@]3(F)[C@@H](O)C[C@]2(C)[C@@]1(O)C(=O)CO [dexamethasone]							reduced	reduced	reduced	significantly lowered	significantly lowered	significantly reduced	significantly reduced
